Measured data: PubChem BioAssay AID504764 (Drosophila RNAi Screening Center, 2011)
The screen tested about 22,000 reagents; this is a random part of those that have a named target and a result. Of all reagents, 403 (1.9%) are marked active. 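Unnormalised raw counts per well; ratio z-scores behind the hit calls and whether each hit raises or lowers signal are not deposited.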 A plus sign joins genes that one reagent is predicted to hit. Not given: the amount of reagent.

Screen: 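Genes whose knock-down alters Notch-dependent transcription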 (primary screen)
System: Drosophila Kc167 cells
Reagent: long dsRNA against Drosophila genes
Time to read-out: about 5 days (4 days dsRNA, then 24 h after transfection)
Conditions: transfection of constitutively active membrane-tethered Notch lacking the extracellular domain, read 24 h later
Measured: 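Light from a Notch-responsive E(spl)m3 luciferase reporter under active Notch, with control-promoter and no-Notch reporter wells to normalise; raw counts from paired wells a and b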
Reading the numbers: induced reporter light, run 1, well a and induced reporter light, run 1, well b: higher = more light from the Notch target reporter with active Notch; control promoter light, run 1, well a and control promoter light, run 1, well b: higher = more light from the viral control promoter (cell number, transfection, viability); uninduced reporter light, run 1, well a: higher = more light from the Notch target reporter without active Notch
Call rule: 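Hit if the duplicate-averaged log2 ratio of induced to control-promoter light gives a plate-wise z beyond ±2, or induced to uninduced beyond ±1.8; weak-control or discordant-duplicate wells dropped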
Calls: active = modifier hit (raised or lowered Notch signal); inactive = not a hit

target gene | amplicon | induced reporter light, run 1, well a | induced reporter light, run 1, well b | control promoter light, run 1, well a | control promoter light, run 1, well b | uninduced reporter light, run 1, well a | activity call
CG32590 | DRSC19594 | 78010 | 82930 | 1.02e5 | 1.20e5 | 12145 | inactive
CG31675 | DRSC01825 | 70590 | 67620 | 56945 | 72465 | 7560 | inactive
CG8664 | DRSC20116 | 1.03e5 | 71165 | 1.06e5 | 85800 | 14190 | inactive
GstO3 | DRSC10710 | 1.54e5 | 1.52e5 | 1.21e5 | 1.42e5 | 7325 | inactive
Pcif1 | DRSC11655 | 1.19e5 | 1.34e5 | 80305 | 1.09e5 | 9250 | inactive
sut2 | DRSC07701 | 1.46e5 | 1.13e5 | 1.23e5 | 1.20e5 | 11190 | inactive
CG42272 | DRSC08766 | 2.25e5 | 1.67e5 | 1.72e5 | 1.73e5 | 13990 | inactive
CG42272 | DRSC22502 | – | – | – | – | – | inactive
CG12118 | DRSC17813 | 2.07e5 | 2.08e5 | 2.36e5 | 2.45e5 | 14355 | inactive
Cpr72Eb | DRSC09870 | 3.33e5 | 1.79e5 | 2.70e5 | 2.37e5 | 9515 | inactive
Cln3 | DRSC10520 | 1.73e5 | 1.24e5 | 1.87e5 | 1.58e5 | 7640 | inactive
Bcat | DRSC19756 | 1.16e5 | 1.27e5 | 1.38e5 | 1.38e5 | 8642 | inactive
CG32982 | DRSC01059 | 63365 | 64125 | 38660 | 43965 | 5728 | inactive
CG32982 | DRSC02677 | 1.25e5 | 1.51e5 | 90650 | 1.44e5 | 21900 | inactive
CG32982 | DRSC03268 | 1.79e5 | 1.86e5 | 98085 | 1.14e5 | 21425 | inactive
CG32982 | DRSC03269 | 1.05e5 | 1.49e5 | 62050 | 1.06e5 | 15635 | inactive
etaTry | DRSC07613 | 1.13e5 | 1.22e5 | 1.89e5 | 1.55e5 | 11115 | inactive
TpnC73F | DRSC11307 | 1.61e5 | 1.48e5 | 2.42e5 | 1.82e5 | 6325 | inactive
BomT2 | DRSC06631 | 1.01e5 | 1.00e5 | 1.21e5 | 89705 | 7110 | inactive
gish | DRSC16154 | 2.00e5 | 2.27e5 | 3.02e5 | 3.12e5 | 15730 | inactive
dmpd | DRSC06092 | 92905 | 93160 | 1.03e5 | 89720 | 8125 | inactive
CG18787 + CG18789 | DRSC02698 | 56870 | 54200 | 35930 | 32955 | 10578 | inactive
CG3306 | DRSC10357 | 97365 | 82105 | 88075 | 46045 | 11170 | inactive
CG13603 | DRSC14606 | 1.57e5 | 1.75e5 | 2.30e5 | 2.59e5 | 14530 | inactive
CG32856 | DRSC13124 | 1.43e5 | 1.09e5 | 1.51e5 | 1.54e5 | 9230 | inactive
CG42821 + CG42822 | DRSC13231 | 48225 | 57650 | 67895 | 52695 | 7365 | inactive
CG42821 + CG42822 | DRSC13232 | 59410 | 43795 | 59275 | 52090 | 6792 | inactive
CG15170 | DRSC02471 | 42510 | 40220 | 48965 | 81010 | 3270 | inactive
IntS2 | DRSC20094 | 1.17e5 | 81680 | 65650 | 23800 | 12885 | inactive
CG1092 | DRSC12151 | 1.06e5 | 1.36e5 | 63270 | 77405 | 8690 | inactive
CG11370 | DRSC11653 | 1.22e5 | 94600 | 1.12e5 | 76765 | 5838 | inactive
arg | DRSC18737 | 1.71e5 | 1.82e5 | 2.27e5 | 2.00e5 | 12765 | inactive
CG12507 | DRSC19463 | 77855 | 57010 | 71805 | 77180 | 8140 | inactive
Dcp-1 | DRSC04609 | 1.84e5 | 1.75e5 | 1.74e5 | 1.81e5 | 13110 | inactive
